From PubChem BioAssay AID1671190 (National Center for Advancing Translational Sciences (NCATS), 2021)
The campaign covered roughly 580,000 compounds. About 6,100 (1.1%) were called active. Inconclusive means that the source gave no clear call. Such entries were picked first, then a sample of the others. The call rests on the fitted dose curve; in most records, active means well fitted inhibition curve with a large enough effect; inconclusive means small, poorly fitted or top-dose-only effect, or another doubt; inactive means no such curve, though single readings can be large or run the other way. Potencies beside an inconclusive call are fits to weak or partial responses and may not hold up.

Protein sequences, listed by entry. Tags and fused reporters are not part of them. Lines headed by an entry give the natural chain unless they say otherwise; changes in a name come on top.
UniProt P18054: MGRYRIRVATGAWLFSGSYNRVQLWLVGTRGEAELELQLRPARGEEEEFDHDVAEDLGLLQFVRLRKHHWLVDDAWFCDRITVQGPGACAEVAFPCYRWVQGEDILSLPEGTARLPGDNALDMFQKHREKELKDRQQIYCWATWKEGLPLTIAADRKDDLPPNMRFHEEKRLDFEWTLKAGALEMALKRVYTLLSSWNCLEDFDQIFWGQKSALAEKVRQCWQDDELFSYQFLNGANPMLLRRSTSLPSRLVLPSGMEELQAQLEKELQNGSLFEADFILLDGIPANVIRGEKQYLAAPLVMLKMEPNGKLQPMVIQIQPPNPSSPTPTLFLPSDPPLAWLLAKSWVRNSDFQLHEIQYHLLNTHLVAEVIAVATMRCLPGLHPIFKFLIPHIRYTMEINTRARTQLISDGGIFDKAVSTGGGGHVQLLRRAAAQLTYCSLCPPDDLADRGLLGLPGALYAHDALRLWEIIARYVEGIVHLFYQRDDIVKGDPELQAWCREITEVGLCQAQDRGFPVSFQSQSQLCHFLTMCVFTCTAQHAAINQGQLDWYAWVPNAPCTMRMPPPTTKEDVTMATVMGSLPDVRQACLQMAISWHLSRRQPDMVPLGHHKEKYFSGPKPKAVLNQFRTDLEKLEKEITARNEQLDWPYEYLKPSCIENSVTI

target: Polyunsaturated fatty acid lipoxygenase ALOX12 (Homo sapiens) (UniProt P18054); assay: Primary qHTS assay for inhibitors of human arachidonate 12S-lipoxygenase (ALOX12): Round 2; conditions: purified 12hLO, xylenol orange hydroperoxide absorbance; activity change, negative = inhibition: at 108 µM (top of the series) unless noted
Outline: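 Hydroperoxide product was detected by ferrous iron/xylenol orange as the 573 to 405 nm absorbance ratio. Arachidonic acid at 40 uM (final) was turned over for 30 min at room temperature by 150 nM human 12hLO, pH 7.0 Hepes buffer, after 15 min compound preincubation.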
On the % scale 0 is the no-effect control and ±100 the full control effect; potency means the concentration at half of the fitted maximal effect.

| Compound | Potency | activity change, negative = inhibition |
| --- | --- | --- |
| N#Cc1cccnc1NCc1cccnc1 | inconclusive: 79.4 µM [inhibitor, partial curve, poor fit] |  |
| CCCOc1ccc(N2C(=O)CC(N(CCC)C(=O)CCC(=O)O)C2=O)cc1 (stereo not drawn) | inconclusive: 50.1 µM [inhibitor, single point] |  |
| CCc1ccc(C2=C/C(=C/c3cccnc3)C(=O)O2)cc1 | inconclusive: 50.1 µM [inhibitor, full curve, poor fit] |  |
| COc1ccc(OC)c(NC(=O)Cn2c(-c3cnccn3)nc(C)c(CCO)c2=O)c1 |  | inactive: 4.66% |
| C[N+]1(CC#Cc2ccc(C#CC[N+]3(C)CCCC3)cc2)CCCC1 | inconclusive: 5.62 µM [inhibitor, full curve, poor fit] |  |
| CCN1C(=O)C(CC(=O)Nc2ccc(OC)cc2)N(Cc2ccc(OC)c(OC)c2)C1=S (stereo not drawn) | inconclusive: 50.1 µM [inhibitor, partial curve, poor fit] |  |
| Cc1cc(C)c2c(N)c(C(=O)NCc3ccco3)sc2n1 |  | inactive: 2.1% |
| Cc1cccc2c(N=Nc3ccc(S(=O)(=O)Nc4ccc(Cl)cc4)cc3[N+](=O)[O-])c(O)[nH]c12 | inconclusive: 44.7 µM [inhibitor, partial curve] |  |
| CCOC(=O)N1CCN(C(=O)CCCCn2c(=S)[nH]c3ccsc3c2=O)CC1 | inconclusive: 50.1 µM [inhibitor, partial curve, poor fit] |  |
| Brc1ccc(CN2CCCCCC2)cc1 | inconclusive: 2.51 µM [inhibitor, full curve, poor fit] |  |
| Cc1cccc(NC(=O)N[C@@H](CC(C)C)C(=O)O)c1 |  | inactive: -17.3% |
| Cc1cccc2cc(C3CC(c4ccco4)=NN3S(=O)(=O)c3ccccc3)c(Cl)nc12 (stereo not drawn) | inconclusive: 44.7 µM [inhibitor, partial curve, poor fit] |  |
| Cc1ccc(-c2nn3c(C)nnc3c3ccccc23)cc1S(=O)(=O)NCC(C)O (stereo not drawn) |  | inactive: -2.93% |
| Cc1nc2sccn2c1P(c1c(C)nc2sccn12)c1c(C)nc2sccn12 | inconclusive: 31.6 µM [inhibitor, partial curve, poor fit] |  |
| Cc1noc(/C=C/c2ccco2)c1S(=O)(=O)N1CCC(C(=O)N(C)Cc2ccccc2)CC1 | inconclusive: 44.7 µM [inhibitor, partial curve, poor fit] |  |
| C[S+](C)CCC(N)C(=O)O (stereo not drawn) | inconclusive: 31.6 µM [inhibitor, partial curve, poor fit] |  |
| COCCCn1c(CCn2cc(Cl)cn2)n[nH]c1=S |  | inactive: -29.8% |
| CCC1=C/C(=C/c2sc3ccccc3[n+]2CC)CC(C)(C)C1 | inconclusive: 25.1 µM [inhibitor, partial curve] |  |

Some values from above:
In Potency, N#Cc1cccnc1NCc1cccnc1 is listed with inconclusive: 79.4 µM [inhibitor, partial curve, poor fit]
In Potency, CCN1C(=O)C(CC(=O)Nc2ccc(OC)cc2)N(Cc2ccc(OC)c(OC)c2)C1=S (stereo not drawn) is listed with inconclusive: 50.1 µM [inhibitor, partial curve, poor fit]
